Experimental data from US20190185544A1, “COMPOSITIONS AND METHODS OF MODULATING ABETA PROTEIN” (University of South Florida, priority 2016, published 2019).
These are yes or no findings as the source states them, for the method shown. For part of these data: Binding seen in cells or lysates may run through a third protein. Some results given as binding are weak or reduced against the parent protein; the word gives no strength.

Amino acid sequences for entries named in this document (tags omitted). A change or cut given only in a name is not applied to a line headed by its entry. Residues count along the entry.
UniProt P05067: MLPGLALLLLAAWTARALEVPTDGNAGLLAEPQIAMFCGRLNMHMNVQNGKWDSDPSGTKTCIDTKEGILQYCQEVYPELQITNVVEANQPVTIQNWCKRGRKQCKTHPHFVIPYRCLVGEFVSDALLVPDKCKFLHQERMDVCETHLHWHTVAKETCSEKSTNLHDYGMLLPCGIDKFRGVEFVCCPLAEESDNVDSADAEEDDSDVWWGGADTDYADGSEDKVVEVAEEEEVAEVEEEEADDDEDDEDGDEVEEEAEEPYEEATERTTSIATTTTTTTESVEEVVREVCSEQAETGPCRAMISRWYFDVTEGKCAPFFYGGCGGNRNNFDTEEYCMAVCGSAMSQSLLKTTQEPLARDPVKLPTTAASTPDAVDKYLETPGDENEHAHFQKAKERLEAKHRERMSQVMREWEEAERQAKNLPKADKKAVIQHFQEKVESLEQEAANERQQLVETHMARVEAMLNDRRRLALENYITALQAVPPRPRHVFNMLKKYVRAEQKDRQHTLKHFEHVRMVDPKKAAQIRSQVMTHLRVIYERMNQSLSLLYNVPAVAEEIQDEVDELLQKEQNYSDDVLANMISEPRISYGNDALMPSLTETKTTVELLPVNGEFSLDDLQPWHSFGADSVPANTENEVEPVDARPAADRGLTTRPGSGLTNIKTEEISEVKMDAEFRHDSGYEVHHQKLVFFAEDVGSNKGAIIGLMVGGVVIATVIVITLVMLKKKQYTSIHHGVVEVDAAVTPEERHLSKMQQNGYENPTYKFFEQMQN
human wild-type amyloid precursor protein (APPwt) expressed in CHO/APPwt cells: residues 18-770 of P05067
total secreted APP (t-sAPP) in CHO/APPwt conditioned media: residues 18-687 of P05067
human recombinant sAPPβ (rsAPPβ, without Aβ domain): residues 18-671 of P05067

Tests used:
[1] = molecular target: human recombinant sAPPβ (rsAPPβ, without Aβ domain) (human) (UniProt P05067); test: in vitro incubation (100 nM each, 37 °C, 1 h), IP with 6H3B5, WB
[2] = molecular target: CHO/APPwt cell conditioned medium-derived sAPPα (cmsAPPα) (human) (UniProt P05067); test: as above
[3] = molecular target: human recombinant sAPPα (rsAPPα) (human) (UniProt P05067); test: as above
[4] = molecular target: human wild-type amyloid precursor protein (APPwt) expressed in CHO/APPwt cells (human) (UniProt P05067); test: immunofluorescence co-localisation on fixed CHO/APPwt cells
[5] = molecular target: human wild-type amyloid precursor protein (APPwt) expressed in CHO/APPwt cells (human) (UniProt P05067); test: co-immunoprecipitation with WB; immunofluorescence co-localisation
[6] = molecular target: human wild-type amyloid precursor protein (APPwt) expressed in CHO/APPwt cells (human) (UniProt P05067); test: CHO/APPwt cells treated 2 h; co-IP from cell lysates (6H3B5 or pN-APP), WB
[7] = molecular target: total secreted APP (t-sAPP) in CHO/APPwt conditioned media (human) (UniProt P05067); test: CHO/APPwt cells treated 2 h; co-IP from conditioned media (6H3B5 or pN-APP), WB
[8] = molecular target: human wild-type amyloid precursor protein (APPwt) expressed in CHO/APPwt cells (human) (UniProt P05067); test: summary of the co-IP and co-localisation experiments of Example 7

| binding [1] | binding [2] | binding [3] | binding [4] | binding [5] | binding [6] | binding [7] | binding [8] | Binder |
| --- | --- | --- | --- | --- | --- | --- | --- | --- |
| binds | binds | binds | binds | binds | binds | binds | – | KKKKKKLRVRLASHLRKLRKRLLRDA [6KApoEp (ApoE LDLR binding domain peptide with 6 N-terminal lysines)] |
| – | – | – | binds | binds | binds | binds | binds | LRVRLASHLRKLRKRLLRDA [ApoE LDLR binding domain peptide (ApoEp, apoE residues 133-152)] |
